Reference: PMC9114391
Results are given in words; binding and its absence hold for the method and conditions named. Some binding calls cover weakened binding; strength is not graded here.

The chains behind the UniProt entries cited, without tags or fusion partners.
UniProt Q07335: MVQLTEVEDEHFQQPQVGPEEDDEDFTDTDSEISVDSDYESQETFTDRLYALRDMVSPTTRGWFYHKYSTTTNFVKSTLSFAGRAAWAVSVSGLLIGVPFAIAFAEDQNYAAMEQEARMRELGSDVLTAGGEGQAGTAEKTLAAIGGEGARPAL

Molecular target: Tom22 with a hexahistidine tag at the C-terminus (Neurospora crassa) (UniProt Q07335)
Test: co-purification (Ni-NTA affinity and anion exchange chromatography, SDS-PAGE with Coomassie staining); mitochondria solubilised in 1% n-dodecyl-β-D-maltoside, 20% glycerol, 300 mM NaCl, 20 mM imidazole, 20 mM Tris-HCl pH 8.5; His-tagged Tom22 held on Ni-NTA, eluted with 300 mM imidazole; then Resource Q, 0-500 mM KCl

binding: binds
B1: Tom6 (protein, UniProt Q1K6I2 1-60)
chain: MPSAKYIERPGGSRKSKGFIRSTYDSLTSSENASVVRSIAFFGAAVAFLSSSWGEMLVVQ
